This is one part of the list.
target: OsWRKY34 (Oryza sativa, UniProt Q0JBA9 1-250); assay: protein-binding microarray (RPBM); PBS, 2% BSA, 51.3 ng/ul salmon testes DNA, 50 uM zinc acetate, 200 nM TF, 25 C, 1 h; high values mean tight binding; details: protein: recombinant; tags: N-terminal polyhistidine and DsRed monomer fusion (pET32a); label: CyDye5-dUTP incorporated in the synthesized complementary strand; 3' TTTTT single-stranded linker to array surface; dsDNA, one strand shown
In short: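 A custom Agilent array was converted to double-stranded form by primer extension with Cy5-dUTP and blocked with 2% BSA. Protein at 200 nM in PBS with 2% BSA, salmon testes DNA and 50 µM zinc acetate was applied for 1 h at 25 °C, followed by washing. The proteins were polyhistidine–DsRed N-terminal fusions of transcription factors, expressed in E. coli BL21-CodonPlus and Ni–NTA-purified. The binding signal is per-feature fluorescence intensity (arbitrary units) from an Axon 4000B scanner.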

By UniProt entry, the sequences of proteins in these tests, tags left out.
UniProt Q0JBA9, entry or part of it: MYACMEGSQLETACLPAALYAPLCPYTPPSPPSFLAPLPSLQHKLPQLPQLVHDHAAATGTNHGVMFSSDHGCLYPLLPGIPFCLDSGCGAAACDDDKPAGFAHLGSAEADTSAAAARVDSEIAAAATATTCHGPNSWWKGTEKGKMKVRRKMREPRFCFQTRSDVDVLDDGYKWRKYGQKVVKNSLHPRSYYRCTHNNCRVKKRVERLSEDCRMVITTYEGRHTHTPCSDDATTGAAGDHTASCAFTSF

Sequence | binding signal
CAGTATCTTACTTCTCAGCTGCTCAATCATCAGCTGCCACCGGAGTCACCTAGTGCAG | 9310 fluorescence intensity (a.u.)
TCTTTTTTCCATCCATCTTTTTTTCGCCGTTCTTTCCGGTCGGAGTCACCTAGTGCAG | 8220 fluorescence intensity (a.u.)
CGCCGTTGACTTTTTGTTTAACGTTTGACCATTTGTCTTACGGAGTCACCTAGTGCAG | 24400 fluorescence intensity (a.u.)
AGAAGCTTTCCGAGGGTGGGCCCGCGTCGTCAGTGTGTGACGGAGTCACCTAGTGCAG | 12700 fluorescence intensity (a.u.)
AAGCTCTCCGACGAGCCGTATTATATTGCCACTATCCTCGCGGAGTCACCTAGTGCAG | 9220 fluorescence intensity (a.u.)
GGAGGGAGTAGTAAATAGTGGTTTTGGTCTTGTTTCAAATCGGAGTCACCTAGTGCAG | 8450 fluorescence intensity (a.u.)
CATGCCTGTTCACGATCTGCTGGCATTTGTGAACCATATGCGGAGTCACCTAGTGCAG | 8870 fluorescence intensity (a.u.)
ACAAAATATTCCCTCCGTCTTAGTCGTTTTGATATTTTTCCGGAGTCACCTAGTGCAG | 8060 fluorescence intensity (a.u.)
ACGTGTGTGGGGATCCAGTTACAGCCCAACTCGTGTTGACCGGAGTCACCTAGTGCAG | 8410 fluorescence intensity (a.u.)
TAATAGCTTATTTTATTTTGCATGTTGTTAAAATTTTTTGCGGAGTCACCTAGTGCAG | 8540 fluorescence intensity (a.u.)
GTATGCATGTGTTCTTCGGTGGACCGGGCCAATGTCCCAACGGAGTCACCTAGTGCAG | 9060 fluorescence intensity (a.u.)
GACACAACCCTACATGTTTAAGGACCGTCTATATAATTTACGGAGTCACCTAGTGCAG | 9990 fluorescence intensity (a.u.)
ATTTTATATGATTTCTTACAGACTTTTTTTATCATTTTACCGGAGTCACCTAGTGCAG | 9760 fluorescence intensity (a.u.)
AGTATAACTTTTTTTTTGTCACTCTGTTATCTCACATCTGCGGAGTCACCTAGTGCAG | 8760 fluorescence intensity (a.u.)
TATACGTGATTTCTCTTTTTAATTTTTTTCATAATTTTTTCGGAGTCACCTAGTGCAG | 8540 fluorescence intensity (a.u.)
CGCATATATACGTGCGGGCCACCTTTCTAGTTTATAGTTACGGAGTCACCTAGTGCAG | 8120 fluorescence intensity (a.u.)
AAGTGCTGCAAAACGGTATGTTTTTGTCTTTGCCATCTTGCGGAGTCACCTAGTGCAG | 8140 fluorescence intensity (a.u.)
TATCTCGTGGCACCTGTCACCCCTCCGCTGCCGATCCGACCGGAGTCACCTAGTGCAG | 10100 fluorescence intensity (a.u.)
GCAAGAAGCGATCGATTCGGCGTGTGCTGGATCGGTTTCCCGGAGTCACCTAGTGCAG | 8180 fluorescence intensity (a.u.)
GTGGCCTTTGGGAGCGGTGACCTGCTGCTCCATCCTTCATCGGAGTCACCTAGTGCAG | 9620 fluorescence intensity (a.u.)
AACTAACTGGCACGCCCTCATATCACCAACCTTTGGACCTCGGAGTCACCTAGTGCAG | 8560 fluorescence intensity (a.u.)
ACCGTTTGCCCCTATTATGTTAATTCTTGTTAACGGTGTTCGGAGTCACCTAGTGCAG | 9120 fluorescence intensity (a.u.)
GATCCTATTTTGAAACCTAACTACCAATTTAACTTTACTTCGGAGTCACCTAGTGCAG | 8860 fluorescence intensity (a.u.)
CGAGTATACTGTCGTTCAACCCTTTTCCAGTTCATACGTACGGAGTCACCTAGTGCAG | 9940 fluorescence intensity (a.u.)
GGGGATCGGAGGGTGGGGATACGCATGGTGGATGGTAGTGCGGAGTCACCTAGTGCAG | 12600 fluorescence intensity (a.u.)
ATCCGATCCTTTGTTGGTTTTGTTTTTTTTTGTGTTCTATCGGAGTCACCTAGTGCAG | 13500 fluorescence intensity (a.u.)
CCCAATTAAATGCCCGAATCATTCTTCTCGGCCCACTCTGCGGAGTCACCTAGTGCAG | 8430 fluorescence intensity (a.u.)

Taken from above.
GGAGGGAGTAGTAAATAGTGGTTTTGGTCTTGTTTCAAATCGGAGTCACCTAGTGCAG – binding signal: 8450 fluorescence intensity (a.u.)
GCAAGAAGCGATCGATTCGGCGTGTGCTGGATCGGTTTCCCGGAGTCACCTAGTGCAG – binding signal: 8180 fluorescence intensity (a.u.)
AGTATAACTTTTTTTTTGTCACTCTGTTATCTCACATCTGCGGAGTCACCTAGTGCAG – binding signal: 8760 fluorescence intensity (a.u.)

Remaining list, next part

Sequence | binding signal
CTGCCGTTTCGTCTATTCTGGCCACACTAAACAATGAGCACGGAGTCACCTAGTGCAG | 10200 fluorescence intensity (a.u.)
CCGCTCCGTCCTCGGCCTTTTCGCCCTCTTCTTCTTCGTCCGGAGTCACCTAGTGCAG | 11500 fluorescence intensity (a.u.)
GGCTCCATGCCTGCTGCTATCTTCAATATGTCCTACCTGCCGGAGTCACCTAGTGCAG | 8440 fluorescence intensity (a.u.)
CCTACAGTTTGTCCTCTGCTGCTTACATGTTTTTCTTATTCGGAGTCACCTAGTGCAG | 10500 fluorescence intensity (a.u.)
ATCACCTAACCCATCCATGGCTTTGTTTGATCGTATCTCTCGGAGTCACCTAGTGCAG | 8060 fluorescence intensity (a.u.)
ATTACTGTGCACAAGCTGCTCTTGATCAATTCAATTTTGCCGGAGTCACCTAGTGCAG | 12200 fluorescence intensity (a.u.)
GTTCTCGTGTTTTATTTCCGTTGTAACGCACGGTTTTTTTCGGAGTCACCTAGTGCAG | 8510 fluorescence intensity (a.u.)
ATCAGCCTCATGCCCTTGTAGTCCATCGATCTGTCAGATCCGGAGTCACCTAGTGCAG | 13300 fluorescence intensity (a.u.)
ATCCATCGTCATCAACCGGCCCGTTCTGTTCGAACCCACACGGAGTCACCTAGTGCAG | 9320 fluorescence intensity (a.u.)
CGCACGCCCGCACGCACCACCACCTGCTGAAATCCCTGCGCGGAGTCACCTAGTGCAG | 8140 fluorescence intensity (a.u.)
GTGCTCATGACATTGTCCGTCTTAGTGTGGGTTGGGACCCCGGAGTCACCTAGTGCAG | 12800 fluorescence intensity (a.u.)
CCCATCTTCCTACGTAAACCCAACAGCCGGCCCACTCAGACGGAGTCACCTAGTGCAG | 10300 fluorescence intensity (a.u.)
GTTTAAACCGCTGCTCGCCAACTTGATTTACGAACAGACACGGAGTCACCTAGTGCAG | 8230 fluorescence intensity (a.u.)
TTCACCTTTCTTTCGTTCGGCCTAAATTATGATTTGTTTTCGGAGTCACCTAGTGCAG | 9200 fluorescence intensity (a.u.)
TCCGCGACGCTGCAATAATTCGCTTCCATATTTGCTGCCGCGGAGTCACCTAGTGCAG | 8590 fluorescence intensity (a.u.)
CTGTTTTTCGCGCGCACGTTCCCCAAACTTCTAGACAATACGGAGTCACCTAGTGCAG | 8060 fluorescence intensity (a.u.)
CGTACATCACCTGTCCAAATCGTATTTGACCCGATCTGCTCGGAGTCACCTAGTGCAG | 8980 fluorescence intensity (a.u.)
TCGTCTATTGGTCTATTTGAGTCTGGCTATCTTCATAAATCGGAGTCACCTAGTGCAG | 8390 fluorescence intensity (a.u.)
CCCAGCACCGCCCTATTGGTAGGAATTTTCATTTCTTCTTCGGAGTCACCTAGTGCAG | 8400 fluorescence intensity (a.u.)
CCGCCGCCTTCGACTGCCGCCGCTCCGCCGTCGTCGCATCCGGAGTCACCTAGTGCAG | 10200 fluorescence intensity (a.u.)
TTGTTGGTGCCCATTTACTTTCTCCTCCAAGGCACCAGCACGGAGTCACCTAGTGCAG | 8270 fluorescence intensity (a.u.)
TCCTTGCCATCCAGATTTCCTCCTCTCCTTTCTTCTTCTTCGGAGTCACCTAGTGCAG | 9270 fluorescence intensity (a.u.)
CGGCCATGACAACGCGTTTATTCCTAACAGCCACATGCATCGGAGTCACCTAGTGCAG | 8960 fluorescence intensity (a.u.)
GACGCCCCTCCGCTGGCCAGCTTCCAGTCCTGCCAACAACCGGAGTCACCTAGTGCAG | 8950 fluorescence intensity (a.u.)
CTCCCACATCTGTCTTGTTCTTGGAAACGCATTCCGTGTTCGGAGTCACCTAGTGCAG | 9110 fluorescence intensity (a.u.)
TCTCTCTCTCTCTCTCCATCTCCTAATTCCTACATTTTCCCGGAGTCACCTAGTGCAG | 8230 fluorescence intensity (a.u.)
CTTACTCTAATCTTTAAGTTTGTTGCTCGGTCGCATGTCTCGGAGTCACCTAGTGCAG | 8950 fluorescence intensity (a.u.)
